# Measurements reported in the supplement of paper PMC8728848.
# This is one part of the list.
# Legend:
# Assay in all cases: glycan array binding signal (z-score within array); higher = stronger binding
# Details in all cases: glycan notation: IUPAC condensed, linker removed
# [1] = molecular target: Fuc(a1-2)Gal(b1-4)[Fuc(a1-3)]GlcNAc(b1-2)Man(a1-3)[Fuc(a1-2)Gal(b1-4)[Fuc(a1-3)]GlcNAc(b1-2)Man(a1-6)]Man(b1-4)GlcNAc(b1-4)[Fuc(a1-6)]GlcNAc
# In short: (§1)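 Negative Z-scores can be read as non-binding. The Z-score is calculated within each array and then averaged across arrays of one protein sequence at different concentrations or buffers and across linkers. Arrays, 3228 in all, were curated from the Consortium for Functional Glycomics database and kept only where the protein sequence was available.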
# [2] = molecular target: Fuc(a1-2)Gal(b1-4)[Fuc(a1-3)]GlcNAc(b1-2)[Fuc(a1-2)Gal(b1-4)[Fuc(a1-3)]GlcNAc(b1-4)]Man(a1-3)[Fuc(a1-2)Gal(b1-4)[Fuc(a1-3)]GlcNAc(b1-2)Man(a1-6)]Man(b1-4)GlcNAc(b1-4)GlcNAc
# In short: as §1
# [3] = molecular target: Fuc(a1-2)Gal(b1-4)[Fuc(a1-3)]GlcNAc(b1-3)Gal(b1-4)[Fuc(a1-3)]GlcNAc
# In short: as §1
# [4] = molecular target: Fuc(a1-2)Gal(b1-4)[Fuc(a1-3)]GlcNAc(b1-3)Gal(b1-4)[Fuc(a1-3)]GlcNAc(b1-3)Gal(b1-4)[Fuc(a1-3)]GlcNAc
# In short: as §1
# [5] = molecular target: Fuc(a1-2)Gal(b1-4)[Fuc(a1-3)]GlcNAc(b1-3)GalNAc
# In short: as §1
# [6] = molecular target: Fuc(a1-2)Gal(b1-4)[Fuc(a1-3)]GlcNAc(b1-3)[Neu5Ac(a2-6)Gal(b1-4)GlcNAc(b1-6)]Gal(b1-4)Glc
# In short: as §1
# [7] = molecular target: Fuc(a1-2)Gal3S(b1-4)GlcNAc
# In short: as §1
# [8] = molecular target: Fuc(a1-2)Gal6S(b1-3)GlcNAc
# In short: as §1
# [9] = molecular target: Fuc(a1-2)Gal6S(b1-3)GlcNAc6S
# In short: as §1
# Fuc(a1-2)Gal6S(b1-4)Glc = molecular target: Fuc(a1-2)Gal6S(b1-4)Glc
# In short: as §1
# [10] = molecular target: Fuc(a1-2)Gal6S(b1-4)Glc6S
# In short: as §1
# Fuc(a1-2)[Gal(a1-3)]Gal = molecular target: Fuc(a1-2)[Gal(a1-3)]Gal
# In short: as §1
# [11] = molecular target: Fuc(a1-2)[Gal(a1-3)]Gal(b1-3)GalNAc
# In short: as §1
# [12] = molecular target: Fuc(a1-2)[Gal(a1-3)]Gal(b1-3)GalNAc(b1-3)Gal(a1-4)Gal(b1-4)Glc
# In short: as §1
# [13] = molecular target: Fuc(a1-2)[Gal(a1-3)]Gal(b1-3)GlcNAc
# In short: as §1
# [14] = molecular target: Fuc(a1-2)[Gal(a1-3)]Gal(b1-3)GlcNAc(b1-2)Man(a1-3)[Fuc(a1-2)[Gal(a1-3)]Gal(b1-3)GlcNAc(b1-2)Man(a1-6)]Man(b1-4)GlcNAc(b1-4)GlcNAc
# In short: as §1
# [15] = molecular target: Fuc(a1-2)[Gal(a1-3)]Gal(b1-3)GlcNAc(b1-2)Man(a1-3)[Fuc(a1-2)[Gal(a1-3)]Gal(b1-3)GlcNAc(b1-2)Man(a1-6)]Man(b1-4)GlcNAc(b1-4)[Fuc(a1-6)]GlcNAc
# In short: as §1
# [16] = molecular target: Fuc(a1-2)[Gal(a1-3)]Gal(b1-3)GlcNAc(b1-3)GalNAc
# In short: as §1
# [17] = molecular target: Fuc(a1-2)[Gal(a1-3)]Gal(b1-3)GlcNAc(b1-6)GalNAc
# In short: as §1
# [18] = molecular target: Fuc(a1-2)[Gal(a1-3)]Gal(b1-4)Glc
# In short: as §1
# [19] = molecular target: Fuc(a1-2)[Gal(a1-3)]Gal(b1-4)GlcNAc
# In short: as §1
# [20] = molecular target: Fuc(a1-2)[Gal(a1-3)]Gal(b1-4)GlcNAc(b1-2)Man
# In short: as §1
# [21] = molecular target: Fuc(a1-2)[Gal(a1-3)]Gal(b1-4)GlcNAc(b1-2)Man(a1-3)[Fuc(a1-2)[Gal(a1-3)]Gal(b1-4)GlcNAc(b1-2)Man(a1-6)]Man(b1-4)GlcNAc(b1-4)GlcNAc
# In short: as §1
# [22] = molecular target: Fuc(a1-2)[Gal(a1-3)]Gal(b1-4)GlcNAc(b1-2)Man(a1-3)[Fuc(a1-2)[Gal(a1-3)]Gal(b1-4)GlcNAc(b1-2)Man(a1-6)]Man(b1-4)GlcNAc(b1-4)[Fuc(a1-6)]GlcNAc
# In short: as §1
# [23] = molecular target: Fuc(a1-2)[Gal(a1-3)]Gal(b1-4)GlcNAc(b1-3)GalNAc
# In short: as §1
# [24] = molecular target: Fuc(a1-2)[Gal(a1-3)]Gal(b1-4)GlcNAc(b1-3)[Fuc(a1-2)[Gal(a1-3)]Gal(b1-4)GlcNAc(b1-6)]GalNAc
# In short: as §1
# [25] = molecular target: Fuc(a1-2)[Gal(a1-3)]Gal(b1-4)GlcNAc(b1-6)GalNAc
# In short: as §1
# [26] = molecular target: Fuc(a1-2)[Gal(a1-3)]Gal(b1-4)[Fuc(a1-3)]Glc
# In short: as §1
# [27] = molecular target: Fuc(a1-2)[Gal(a1-3)]Gal(b1-4)[Fuc(a1-3)]GlcNAc
# In short: as §1
# [28] = molecular target: Fuc(a1-2)[Gal(a1-3)]Gal(b1-4)[Fuc(a1-3)]GlcNAc(b1-3)GalNAc
# In short: as §1
# [29] = molecular target: Fuc(a1-2)[Gal(a1-4)]Gal(b1-4)GlcNAc
# In short: as §1
# [30] = molecular target: Fuc(a1-2)[GalNAc(a1-3)]Gal
# In short: as §1
# [31] = molecular target: Fuc(a1-2)[GalNAc(a1-3)]Gal(b1-3)GalNAc(a1-3)[Fuc(a1-2)]Gal(b1-4)GlcNAc
# In short: as §1
# [32] = molecular target: Fuc(a1-2)[GalNAc(a1-3)]Gal(b1-3)GalNAc(b1-3)Gal(a1-4)Gal(b1-4)Glc
# In short: as §1
# [33] = molecular target: Fuc(a1-2)[GalNAc(a1-3)]Gal(b1-3)GlcNAc
# In short: as §1
# [34] = molecular target: Fuc(a1-2)[GalNAc(a1-3)]Gal(b1-3)GlcNAc(b1-2)Man(a1-3)[Fuc(a1-2)[GalNAc(a1-3)]Gal(b1-3)GlcNAc(b1-2)Man(a1-6)]Man(b1-4)GlcNAc(b1-4)GlcNAc
# In short: as §1
# [35] = molecular target: Fuc(a1-2)[GalNAc(a1-3)]Gal(b1-3)GlcNAc(b1-2)Man(a1-3)[Fuc(a1-2)[GalNAc(a1-3)]Gal(b1-3)GlcNAc(b1-2)Man(a1-6)]Man(b1-4)GlcNAc(b1-4)[Fuc(a1-6)]GlcNAc
# In short: as §1
# [36] = molecular target: Fuc(a1-2)[GalNAc(a1-3)]Gal(b1-3)GlcNAc(b1-3)GalNAc
# In short: as §1
binder,measurement,setting,value
GS13971A-bth-447-22-447 (Bacteroides thetaiotaomicron) (protein) EDVDNERSKGMFSASQSGFSTIEVYDLGPLNKIDLSIAKAGLEDTGGTVTFSVEQSLLDSLNNADGTSYQLLPPECYTIENATYSVSPGGDRRVTGGSLVYDPHKIYNLCGFDELKYVLPLRVSSTGTPMNSDRTATLYGFIVKEAIVRLASTGGDFVVEGGTTTSPMNLDTEISFENEWDLTTSFATKGADYVDNYNSANSTYYIPLPSDFYTLPDVTIAKGKTTGGSAISLLGETLPPGNYLLPVSLGGLSGQGDASINIDKETVANYFVIKQGGPINRDHWTVTANTEEKTGEVSAAYPHNGQTISLIDGEINTFWHSKWQGGEVAPPYEIILDMGKENSVSQLGLIARQNALTSMNLEIYAGDDGETWNLIGKYFFDGSIKTEQMVPVKACDARWIRIYIPTLGSGSSVGHLAEIYVYGTDK,glycan array binding signal (z-score),[1],0.063
same,glycan array binding signal (z-score),[2],0.844
same,glycan array binding signal (z-score),[3],-0.632
same,glycan array binding signal (z-score),[4],-0.677
same,glycan array binding signal (z-score),[5],1.01
same,glycan array binding signal (z-score),[6],-0.385
same,glycan array binding signal (z-score),[7],-0.51
same,glycan array binding signal (z-score),[8],1.21
same,glycan array binding signal (z-score),[9],0.223
same,glycan array binding signal (z-score),Fuc(a1-2)Gal6S(b1-4)Glc,0.378
same,glycan array binding signal (z-score),[10],-0.753
same,glycan array binding signal (z-score),Fuc(a1-2)[Gal(a1-3)]Gal,0.385
same,glycan array binding signal (z-score),[11],0.434
same,glycan array binding signal (z-score),[12],1.39
same,glycan array binding signal (z-score),[13],0.813
same,glycan array binding signal (z-score),[14],-0.969
same,glycan array binding signal (z-score),[15],-0.385
same,glycan array binding signal (z-score),[16],-0.753
same,glycan array binding signal (z-score),[17],0.614
same,glycan array binding signal (z-score),[18],-0.156
same,glycan array binding signal (z-score),[19],-0.476
same,glycan array binding signal (z-score),[20],-0.936
same,glycan array binding signal (z-score),[21],0.029
same,glycan array binding signal (z-score),[22],-0.543
same,glycan array binding signal (z-score),[23],-0.978
same,glycan array binding signal (z-score),[24],0.521
same,glycan array binding signal (z-score),[25],0.648
same,glycan array binding signal (z-score),[26],0.283
same,glycan array binding signal (z-score),[27],-0.117
same,glycan array binding signal (z-score),[28],1.88
same,glycan array binding signal (z-score),[29],1.4
same,glycan array binding signal (z-score),[30],-0.411
same,glycan array binding signal (z-score),[31],-0.632
same,glycan array binding signal (z-score),[32],-0.418
same,glycan array binding signal (z-score),[33],-0.659
same,glycan array binding signal (z-score),[34],-0.704
same,glycan array binding signal (z-score),[35],-1.44
same,glycan array binding signal (z-score),[36],0.307

# As a working copy, some entries already given.
binder,measurement,setting,value
GS13971A-bth-447-22-447 (Bacteroides thetaiotaomicron) (protein) EDVDNERSKGMFSASQSGFSTIEVYDLGPLNKIDLSIAKAGLEDTGGTVTFSVEQSLLDSLNNADGTSYQLLPPECYTIENATYSVSPGGDRRVTGGSLVYDPHKIYNLCGFDELKYVLPLRVSSTGTPMNSDRTATLYGFIVKEAIVRLASTGGDFVVEGGTTTSPMNLDTEISFENEWDLTTSFATKGADYVDNYNSANSTYYIPLPSDFYTLPDVTIAKGKTTGGSAISLLGETLPPGNYLLPVSLGGLSGQGDASINIDKETVANYFVIKQGGPINRDHWTVTANTEEKTGEVSAAYPHNGQTISLIDGEINTFWHSKWQGGEVAPPYEIILDMGKENSVSQLGLIARQNALTSMNLEIYAGDDGETWNLIGKYFFDGSIKTEQMVPVKACDARWIRIYIPTLGSGSSVGHLAEIYVYGTDK,glycan array binding signal (z-score),[21],0.029
same,glycan array binding signal (z-score),[22],-0.543
